# Experimental data published in PubChem BioAssay AID1347423 (Functional Genomics Laboratory (NCATS/FGL), 2020).
# About 210 (0.4%) of roughly 52,000 sequences were called active.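 How the source made its calls: active means gene whose silencing raises cell survival under the drug, median off-target-corrected z-score across its silencing RNAs 2 or more; inactive means the rest.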 This is one part of the list.
# Experiment: Resistance to Poly (ADP-Ribose) Polymerase inhibitor: Gene Identification via Genome-wide siRNA Screen
# Conditions: mouse BRCA2 R2336H ES cells, olaparib, CellTiter-Glo viability; active compounds read high
# Outline: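 Mouse BRCA2 R2336H ES cells were reverse-transfected with siRNA (20 nM final), treated at 48 h with 500 nM olaparib, and read by CellTiter-Glo after 72 h. Scores: MAD-based z per siRNA, median per gene, seed off-target correction.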
row,Sequence,z-score
1,GCUCACUUAUCUACGUUUUTT against Trim15,inactive: 0.783
2,GGCCCAUAUUUGACUAUAATT against Tlr4,inactive: 0.842
3,UCUCAUUGCAAUUCUGGGATT against Olfr675,inactive: 0.278
4,GGGCUUGUCCAUGAUGAACTT against Rb1cc1,inactive: 1.27
5,CGUUAGUACAAUAUACAAGTT against St18,inactive: -0.297
6,GGCUGGAAUCACUGAUAUUTT against 1110033O09Rik,inactive: -1.53
7,CCACAUUAAAUACGCAACATT against Nos3,inactive: 0.807
8,GGCAUAAAACAGAUUCCUUTT against Tac1,inactive: 0.511
9,CGGUCACUUUCAACAUCAATT against C1qbp,inactive: 0.0286
10,GGACACCUCGAGAUUCUCUTT against 4921517D21Rik,inactive: 0.247
11,GGAAGACACUCCUCUGCUCTT against p,inactive: 2.2
12,GGCAAAGAAUUCAAUCGGATT against Atp2b2,inactive: 0.0746
13,GGACAUUGAGAUUUAGCCATT against Kcnc2,inactive: -0.588
14,UAGGAACGCACCCAUACAATT against Mtvr2,inactive: -0.36
15,GGUCCUGAUGAAUACAUACTT against Asb10,inactive: -1.26
16,GGGACAGCUUUUGUGACUCTT against 1300006N24Rik,inactive: -0.602
17,CGAACAUGAGUGGAUUGUCTT against 1700010A17Rik,inactive: -0.426
18,GGUGCUAAUCAUCAUCAUGTT against 2610109H07Rik,inactive: -0.33
19,GGAAAUGUACUGUGCCUGGTT against Ogdh,inactive: -1.62
20,GCUCAAUGUGACAGUGGUGTT against NE,inactive: 0.295
21,GCAUGCUGACAUUAAAGUGTT against 9130020L07Rik,inactive: 0.17
22,GCUUUUUGACUACGUAGCCTT against BC016235,inactive: 0.932
23,GGGAAACACAGAUUUCUUUTT against Igsf4c,inactive: 0.467
24,GGAGGACCCUAUGUCUAAUTT against Adora1,inactive: 2.75
25,ACCUGAAUUUGGUGACUGATT against AY053573,inactive: -0.243
26,GGAAUUGUAGAAAGUGUUGTT against Adh4,inactive: -0.776

# Retrieved one by one from the entries so far (three):
row,Sequence,z-score
12,GGCAAAGAAUUCAAUCGGATT against Atp2b2,inactive: 0.0746
7,CCACAUUAAAUACGCAACATT against Nos3,inactive: 0.807
14,UAGGAACGCACCCAUACAATT against Mtvr2,inactive: -0.36

# (continued)

row,Sequence,z-score
1,GGAUUGAAAAGAAUAUGCUTT against Tdrd7,inactive: 1.12
2,GGGCGAGGCCAAUUUCUUCTT against 2410006F12Rik,inactive: -2.11
3,GGCGAAGCUUGAAGAACAUTT against Kpnb3,inactive: 0.4
4,GGUGAUUUGGCUUCUGCACTT against Sp3,inactive: -1.79
5,GGCUUGAUGAAGAGAAUAUTT against Oog4,inactive: -0.145
6,GCUGUUCAAUUUGAUUACUTT against Dapp1,inactive: -0.407
7,GGAACAGUUACUUGAGAGUTT against A730012O14Rik,inactive: -0.573
8,GGCGGUCUUUAAGAUGCUCTT against 2300004C15Rik,inactive: -0.459
9,CCUUAGAUGAAAUUAGACATT against 2700087I09Rik,inactive: 1.24
10,GUGUUUUACCAUUGGACAUTT against Klra20,inactive: -0.576
11,CCGUAAAACCAUGAAGAAGTT against Pdzk4,inactive: -1.41
12,GGAACUUCCAGAGAUGAGUTT against Bmp2,inactive: 0.982
13,GGAUGCAGACCAGAACUACTT against C1ql1,inactive: 0.1
14,GGCAAGCUACAAGUUAGUCTT against AB041661,inactive: -0.904
15,GGAGACUGAAGAAGAAUAUTT against Lpin2,inactive: -1.16
16,GCACAAAUUUGGUAGUGUUTT against Nup50,inactive: 0.51
17,GGAACUUCCUGUUCAGAAATT against 1810022C23Rik,inactive: -0.742
18,GCAUACAAAUGCACAUUGATT against D16Bwg1547e,inactive: -1.45
19,GGAAUUUGUGGAAACAGGATT against Tnfaip3,inactive: 0.558
20,CCUUCAGCUAUCUAACUUCTT against 5730521E12Rik,inactive: 0.528
21,GGUUUACCCAAAGAACUCGTT against Snap29,inactive: 2.33
22,CCAGCUUACCUUUGAAAAATT against Dusp12,inactive: 0.456
23,GCUGUUGGAUCCUUUCCUATT against Slc25a26,inactive: -1.06
24,GGAUACCAAGCAUCGGAAGTT against Tcfap2e,inactive: -0.809
25,CGAGGAUGACUUGAUGACCTT against Gm996,inactive: 2.52
26,CCUGGCUAUUAGAUCGCGUTT against Kif12,inactive: 1.07

row,Sequence,z-score
1,GGCAUCAUCGAUGUUUAUGTT against Pte2b,inactive: -0.138
2,CGUACAAAUAUGAUUCGAATT against 9530014D17Rik,inactive: 0.231
3,GGACCACAUUUUAUGUUGUTT against Rg9mtd3,inactive: -0.107
4,GCUCGGAAAACUGGCACUATT against Psmb7,inactive: -3.53
5,GGAUCAUCAAAACUGACUATT against Sema3d,inactive: 2.78
6,GGAUAGAAACAUUUCUGUGTT against Olfr1145,inactive: 0.774
7,GGCACUCCAUGGAAAUUAGTT against 4831416G18Rik,inactive: -1.25
8,GGCUGUGGAUAAUAAACAUTT against V1rg11,inactive: 0.745
9,GGUUAUUUAUGCCCUCAAUTT against AB041544,inactive: 0.815
10,GCUAUGUUAGGAGAAAUGCTT against Copb1,inactive: 1.63
11,GGCAAACAGGUUGAUCGUGTT against 1700123K08Rik,inactive: 0.837
12,GGCCGGAGAAAUCAUUGAGTT against Nme7,inactive: -0.896
13,GGCCCAGGAAGAAACAUGUTT against Tff1,inactive: -1.07
14,CCUAUGUCAUCAUUGGAGUTT against 2310005G13Rik,inactive: 0.537
15,CGGUGUCAUCAGUUGCUUATT against 4930432B04Rik,inactive: -2.04
16,CCUCAUUCUCAUUACGACATT against Acp6,inactive: 0.329
17,GGCAGCAUUUGUUCUUUUATT against Zfpn1a1,inactive: 0.342
18,GGAAAAAAGAGUCACUUCCTT against Rag1,inactive: 2.85
19,GGAAACGAUGCAAGAACCCTT against Zp3r,inactive: -1.4
20,GGCCUGGCAUGAACAUAAATT against Atf5,inactive: -1.1
21,GGAAGAAUCGCUGCUACCGTT against Mrpl20,inactive: 1.16
22,GGAUGUCUACUGGAAUGUUTT against D430024F16Rik,inactive: -2.14
23,GGAAUUUCGGGACAAAAUUTT against Olfr654,inactive: -0.213
24,AGAGAGAAAUGGUAGCGUATT against Oog2,inactive: 0.705
25,GGUGGAAUGAAAUAUGAAGTT against Ptp4a1,inactive: 0.0271
26,GGGAAGAAAAGAAGUAUGUTT against Atp10a,inactive: 0.357

# Copied from the results shown for reference:
row,Sequence,z-score
6,GGCUGGAAUCACUGAUAUUTT against 1110033O09Rik,inactive: -1.53
7,CCACAUUAAAUACGCAACATT against Nos3,inactive: 0.807
8,GGCAUAAAACAGAUUCCUUTT against Tac1,inactive: 0.511
9,CGGUCACUUUCAACAUCAATT against C1qbp,inactive: 0.0286
10,GGACACCUCGAGAUUCUCUTT against 4921517D21Rik,inactive: 0.247
11,GGAAGACACUCCUCUGCUCTT against p,inactive: 2.2

# Further entries follow.

row,Sequence,z-score
1,GUCCUGCACUUUUUGGCUCTT against Olfr1223,inactive: -0.59
2,GGAAGCACAUCAAUAGGGCTT against Olfr828,inactive: 0.899
3,GGAACUUUCUGAAGAAACATT against Oasl2,inactive: -1.08
4,GCUACUCUACUGGUUCUUATT against Pltp,inactive: -0.867
5,GCCUUUCGUGGUGUCAGCUTT against Chst2,inactive: 0.699
6,GAUGCUCAUCAAUAUCGUATT against Olfr1109,inactive: -0.288
7,GGAAAGGCUCGGCUUUUGATT against Ormdl2,inactive: -2.81
8,GGGUUUGCAUCACUUUGUUTT against Olfr1245,inactive: -0.25
9,GGAUGAUUUCCAGAGAGUATT against Rdh5,inactive: -1.33
10,GCAGGAAAGAGUUCAACAGTT against Ian1,inactive: -0.518
11,GGCAAAUUAGCUAGUAUCATT against Rai2,inactive: -1.28
12,GGUAAUCUUUCAGUUACCCTT against Six4,inactive: 0.0146
13,GGUGAUGUGGAAGCAUUUGTT against Adrm1,inactive: -2.06
14,GGAACACUGGAACUAUUUUTT against Sipa1l1,inactive: -1.16
15,GGGAAAGAAGCAAAACUUUTT against 3830421F13Rik,inactive: 1.35
16,GGAAGAGGCUGAAGUAAAATT against Brd8,inactive: -2.23
17,CCACAAAUACAAAUCUACCTT against Bloc1s3,inactive: -0.433
18,GGAUUCUCUACCUUACCAUTT against 2810423E13Rik,inactive: -0.387
19,GGGAGAAGUAAGUGUUAUCTT against Npy2r,inactive: 2.15
20,UAAAUACUUACCAGCUGGATT against Olfr1306,inactive: -0.725
21,CCUUCAGAAAGUUGUUGAATT against Commd5,inactive: -0.987
22,GGAGUUUGCCACAAUUGUUTT against 2810408E11Rik,inactive: -1.26
23,GGCCUGGAGGAGCUAUAUUTT against Nrl,inactive: -0.0154
24,GCAAAAUCUCAAAUUGCUCTT against Mdh1,inactive: 0.0536
25,GGAAAGAAGAACCAAGCUCTT against Med6,inactive: -1.98
26,GGAAACAAGAAGAACGAUGTT against Camk2a,inactive: 0.214
